The source of these data is patent publication US20190201430A1, “TREATING OCULAR NEOVASCULARIZATION” (Massachusetts Eye and Ear Infirmary, priority 2014, published 2019).

By UniProt entry, the sequences of proteins in these tests, tags left out. Residues count along the entry.
UniProt Q03135, residues 2-178: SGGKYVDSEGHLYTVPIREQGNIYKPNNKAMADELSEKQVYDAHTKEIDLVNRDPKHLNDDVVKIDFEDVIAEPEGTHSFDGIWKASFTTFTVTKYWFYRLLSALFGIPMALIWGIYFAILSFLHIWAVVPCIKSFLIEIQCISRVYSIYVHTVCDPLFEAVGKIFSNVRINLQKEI
UniProt P00519: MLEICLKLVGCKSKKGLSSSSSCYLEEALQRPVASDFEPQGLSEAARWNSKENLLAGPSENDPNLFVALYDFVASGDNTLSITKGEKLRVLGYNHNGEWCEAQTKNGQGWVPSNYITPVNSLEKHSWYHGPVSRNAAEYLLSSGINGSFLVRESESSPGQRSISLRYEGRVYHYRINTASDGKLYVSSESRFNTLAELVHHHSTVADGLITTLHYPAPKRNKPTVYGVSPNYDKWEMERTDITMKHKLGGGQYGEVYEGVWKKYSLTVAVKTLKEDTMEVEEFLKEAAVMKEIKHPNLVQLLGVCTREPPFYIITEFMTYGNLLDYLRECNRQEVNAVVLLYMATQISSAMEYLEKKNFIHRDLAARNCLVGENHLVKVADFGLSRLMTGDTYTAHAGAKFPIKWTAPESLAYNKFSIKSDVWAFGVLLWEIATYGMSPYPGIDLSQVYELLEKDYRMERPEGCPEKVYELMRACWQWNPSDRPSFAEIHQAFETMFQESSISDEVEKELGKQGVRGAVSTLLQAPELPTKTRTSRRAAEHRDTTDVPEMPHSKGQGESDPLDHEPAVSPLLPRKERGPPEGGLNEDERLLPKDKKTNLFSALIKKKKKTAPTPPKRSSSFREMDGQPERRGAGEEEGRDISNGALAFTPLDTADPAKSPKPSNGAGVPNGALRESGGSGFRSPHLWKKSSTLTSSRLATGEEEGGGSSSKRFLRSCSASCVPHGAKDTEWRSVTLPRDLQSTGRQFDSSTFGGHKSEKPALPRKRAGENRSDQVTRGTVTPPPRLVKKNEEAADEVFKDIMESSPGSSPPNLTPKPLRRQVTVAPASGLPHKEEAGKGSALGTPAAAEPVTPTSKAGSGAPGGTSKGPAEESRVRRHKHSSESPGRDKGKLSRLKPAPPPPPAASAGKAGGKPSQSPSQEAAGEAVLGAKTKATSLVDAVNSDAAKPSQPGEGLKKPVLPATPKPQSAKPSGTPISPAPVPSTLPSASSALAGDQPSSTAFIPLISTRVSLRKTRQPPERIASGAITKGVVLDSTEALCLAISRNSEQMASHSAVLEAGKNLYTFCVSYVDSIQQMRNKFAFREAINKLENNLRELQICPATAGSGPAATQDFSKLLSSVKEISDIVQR
UniProt P35968, residues 20-1356: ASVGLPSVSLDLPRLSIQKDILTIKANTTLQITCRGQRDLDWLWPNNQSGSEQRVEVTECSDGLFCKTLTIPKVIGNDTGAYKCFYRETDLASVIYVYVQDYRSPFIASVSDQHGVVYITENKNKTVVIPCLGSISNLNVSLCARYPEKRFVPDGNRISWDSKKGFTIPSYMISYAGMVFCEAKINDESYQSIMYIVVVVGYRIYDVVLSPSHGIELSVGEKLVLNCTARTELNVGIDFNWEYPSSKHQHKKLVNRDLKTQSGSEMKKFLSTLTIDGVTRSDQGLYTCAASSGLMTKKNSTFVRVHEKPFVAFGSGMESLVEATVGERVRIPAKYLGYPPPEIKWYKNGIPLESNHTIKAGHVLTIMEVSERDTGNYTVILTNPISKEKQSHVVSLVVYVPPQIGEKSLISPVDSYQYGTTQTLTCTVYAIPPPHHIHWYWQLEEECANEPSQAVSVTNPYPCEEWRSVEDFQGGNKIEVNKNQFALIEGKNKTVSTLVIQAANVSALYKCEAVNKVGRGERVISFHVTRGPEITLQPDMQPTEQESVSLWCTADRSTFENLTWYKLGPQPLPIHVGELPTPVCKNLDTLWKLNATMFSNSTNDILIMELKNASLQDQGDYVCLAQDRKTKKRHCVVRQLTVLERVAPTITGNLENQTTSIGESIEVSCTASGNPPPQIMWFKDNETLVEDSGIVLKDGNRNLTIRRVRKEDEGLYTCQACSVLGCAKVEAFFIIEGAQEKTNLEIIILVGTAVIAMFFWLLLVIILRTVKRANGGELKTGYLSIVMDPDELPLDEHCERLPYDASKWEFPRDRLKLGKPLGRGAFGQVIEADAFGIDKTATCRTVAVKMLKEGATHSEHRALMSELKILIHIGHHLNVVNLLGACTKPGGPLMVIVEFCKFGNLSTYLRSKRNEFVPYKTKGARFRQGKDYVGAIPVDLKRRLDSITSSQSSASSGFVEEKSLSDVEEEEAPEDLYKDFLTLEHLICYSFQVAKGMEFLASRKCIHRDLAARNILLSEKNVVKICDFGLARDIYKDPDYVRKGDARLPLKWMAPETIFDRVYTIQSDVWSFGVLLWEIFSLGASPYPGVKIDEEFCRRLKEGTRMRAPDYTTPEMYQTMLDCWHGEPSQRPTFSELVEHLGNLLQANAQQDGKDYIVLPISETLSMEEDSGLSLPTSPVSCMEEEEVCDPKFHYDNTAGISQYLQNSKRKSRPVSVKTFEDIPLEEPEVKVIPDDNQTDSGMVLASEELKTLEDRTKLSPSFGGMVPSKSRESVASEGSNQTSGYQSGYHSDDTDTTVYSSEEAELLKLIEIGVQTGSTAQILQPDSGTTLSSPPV

For assay [1], the target named is caveolin-1 (human (endogenous in HUVECs)) (UniProt Q03135). Put plainly: co-immunoprecipitation from HUVEC lysate: anti-caveolin-1 pull-down, anti-VEGFR2 immunoblot.
Assay [2] has as its target c-Abl (human (endogenous in HUVECs)) (UniProt P00519). Nature of the assay: co-immunoprecipitation from HUVEC lysate: anti-prdx1 pull-down, anti-c-Abl immunoblot (H2O2 model), figure legend. Background: Immunoblotting shows a protein as a band on a membrane.
Assay [3] has the same target. Put plainly: co-immunoprecipitation from HUVEC lysate: anti-prdx1 pull-down, anti-c-Abl immunoblot (H2O2 model).
Assay [4] has the same target. Nature of the assay: co-immunoprecipitation from HUVEC lysate: anti-prdx1 pull-down, anti-c-Abl immunoblot (VEGF model), figure legend.
Assay [5] shares this target. Put plainly: co-immunoprecipitation from HUVEC lysate: anti-prdx1 pull-down, anti-c-Abl immunoblot (VEGF model).

Results are given in words; binding and its absence hold for the method and conditions named. Binding seen in cells or lysates may run through a third protein. Some results given as binding are weak or reduced against the parent protein; the word gives no strength.

Regarding “VEGF receptor-2 (VEGFR2) (from UniProt P35968 20-1356)”, the binding result in assay [1] is given as “binds”.

B1: Peroxiredoxin I (Prdx1) (enzyme, human (endogenous in HUVECs), UniProt Q06830 2-199, looked up)
chain: SSGNAKIGHPAPNFKATAVMPDGQFKDISLSDYKGKYVVFFFYPLDFTFVCPTEIIAFSDRAEEFKKLNCQVIGASVDSHFCHLAWVNTPKKQGGLGPMNIPLVSDPKRTIAQDYGVLKADEGISFRGLFIIDDKGILRQITVNDLPVGRSVDETLRLVQAFQFTDKHGEVCPAGWKPGSDTIKPDVQKSKEYFSKQK
As for B1, the binding result in assay [2], in assay [3], in assay [4] and in assay [5] was “binds” each time.
